# Experimental data: the supplement of paper PMC4604168 (melanoma cell lines)
# The list shows a part of the results. Many values rest on one well or one pass, so single values are uncertain.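 The apoptosis fraction was the count of cleaved-PARP antibody-stained nuclei relative to all DNA-stained nuclei, imaged in 1,536-well plates. Screening doses were set so most cells survived, and baseline and induced cleaved-PARP levels vary greatly across cell lines.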
# Experiments:
# Assay in all cases: cleaved PARP positive nuclei fraction relative to DMSO control; melanoma cells; higher = more apoptosis
# Settings in all cases: library dose: low library concentration; 72 h
# [1] = system: 501Mel
# [2] = system: A101D
# [3] = system: A2058
# [4] = system: A375
# [5] = system: C32
# [6] = system: CBRC008 (line from a melanoma biopsy)
# [7] = system: CBRC013 (line from a melanoma biopsy)
# [8] = system: CBRC014 (line from a melanoma biopsy)
# [9] = system: CBRC016 (line from a melanoma biopsy)
# [10] = system: CBRC017 (line from a melanoma biopsy)
Structure (SMILES),cleaved PARP positive nuclei fraction [1] [%],cleaved PARP positive nuclei fraction [2] [%],cleaved PARP positive nuclei fraction [3] [%],cleaved PARP positive nuclei fraction [4] [%],cleaved PARP positive nuclei fraction [5] [%],cleaved PARP positive nuclei fraction [6] [%],cleaved PARP positive nuclei fraction [7] [%],cleaved PARP positive nuclei fraction [8] [%],cleaved PARP positive nuclei fraction [9] [%],cleaved PARP positive nuclei fraction [10] [%]
"CN(C)S(=O)(=O)c1ccc2c(c1)/C(=C/c1cc3c([nH]1)CCCC3)C(=O)N2 + CN(NC(=O)CC(=O)NN(C)C(=S)c1ccccc1)C(=S)c1ccccc1 [STA4783] (first compound 0.4 µM, partner dose 0.006 µM)",620,182,171,4190,126,4820,147,647,408,244
"NCC(=O)Nc1ccc(-n2nc(C(F)(F)F)cc2-c2ccc3c(ccc4ccccc43)c2)cc1 + O=C(Nc1ccccc1)c1cc([N+](=O)[O-])ccc1Cl [GW9662] (first compound 1 µM, partner dose 2 µM)",455,108,62.9,6550,204,,89,94.6,91.9,71.5
"NCC(=O)Nc1ccc(-n2nc(C(F)(F)F)cc2-c2ccc3c(ccc4ccccc43)c2)cc1 + CN(NC(=O)CC(=O)NN(C)C(=S)c1ccccc1)C(=S)c1ccccc1 [STA4783] (first compound 1 µM, partner dose 0.006 µM)",947,83.3,75.5,8990,179,1760,149,623,178,264
"O=S(=O)(c1ccccc1)N(CC(F)(F)F)c1ccc(C(O)(C(F)(F)F)C(F)(F)F)cc1 + COc1cc(N2CCC(N3CCN(C)CC3)CC2)ccc1Nc1ncc(Cl)c(Nc2ccccc2S(=O)(=O)C(C)C)n1 [NVP-TAE684] (first compound 1.4 µM, partner dose 0.08 µM)",59.8,352,84.2,197,121,,537,114,131,97
"NCC(=O)Nc1ccc(-n2nc(C(F)(F)F)cc2-c2ccc3c(ccc4ccccc43)c2)cc1 + COc1cc2c(Oc3ccc4[nH]c(C)cc4c3F)ncnc2cc1OCCCN1CCCC1 [cediranib] (first compound 1 µM, partner dose 0.4 µM)",851,77.1,42.8,3910,72.8,213,125,96.8,119,101
"CCN(CC)CCCCNc1ncc2cc(-c3cc(OC)cc(OC)c3)c(NC(=O)NC(C)(C)C)nc2n1 + O=C(O)C(=O)Nc1sc2c(c1C(=O)O)CCNC2 [TCS401] (first compound 0.1 µM, partner dose 1.66667 µM)",85.4,311,41.1,129,51.9,,142,73.3,242,63.9
"N#Cc1c(O)c2c(-c3ccc(-c4ccccc4O)cc3)csc2[nH]c1=O + CCN(CC)CCCCNc1ncc2cc(-c3cc(OC)cc(OC)c3)c(NC(=O)NC(C)(C)C)nc2n1 [PD173074] (first compound 2 µM, partner dose 0.1 µM)",66.8,148,147,107,50,,125,85.9,35.6,74.4
"Oc1cc(-c2nc(-c3ccccc3)[nH]c2-c2ccncc2)ccc1Cl + CCCCCCCCCCCC1=C(O)C(=O)C=C(O)C1=O [Embelin] (first compound 0.2 µM, partner dose 1.2 µM)",153,55.9,57.8,84.5,34.1,,106,89.2,134,76.6
"Oc1cc(-c2nc(-c3ccccc3)[nH]c2-c2ccncc2)ccc1Cl + O=C1NC(=O)/C(=C/c2ccc(-c3ccc(F)cc3O)o2)S1 [AS252424] (first compound 0.2 µM, partner dose 1 µM)",48.8,164,51.5,682,50.2,,54.1,104,46.5,138
"c1cc(-c2cnn3cc(-c4ccc(OCCN5CCCCC5)cc4)cnc23)ccn1 [Dorsomorphin] + CC(C)CCN1c2nc(Nc3cc(F)c(O)c(F)c3)ncc2N(C)C(=O)C1C [BID1870] (first compound 0.4 µM, partner dose 0.2 µM)",92.2,43.7,145,133,97.7,,264,108,23.7,207
"CN(C)S(=O)(=O)c1ccc2c(c1)/C(=C/c1cc3c([nH]1)CCCC3)C(=O)N2 + c1cc(-c2cnn3cc(-c4ccc(OCCN5CCCCC5)cc4)cnc23)ccn1 [Dorsomorphin] (first compound 0.4 µM, partner dose 0.4 µM)",69.2,212,59.7,130,96.1,,104,114,81.5,93.4
"N#Cc1c(O)c2c(-c3ccc(-c4ccccc4O)cc3)csc2[nH]c1=O + COc1ccc(-c2ccc3c(N4CCOCC4)nc(N4C[C@@H](C)O[C@@H](C)C4)nc3n2)cc1CO [KU0063794] (first compound 2 µM, partner dose 0.02 µM)",148,35.5,91.7,138,175,,144,188,67.3,165
"O=C1NC(=O)/C(=C/c2ccc(-c3ccc(F)cc3O)o2)S1 + c1cc(-c2cnn3cc(-c4ccc(OCCN5CCCCC5)cc4)cnc23)ccn1 [Dorsomorphin] (first compound 1 µM, partner dose 0.4 µM)",91.6,205,86.7,101,144,,96.3,103,54.6,78.1
"O=C1NC(=O)/C(=C/c2ccc(-c3ccc(F)cc3O)o2)S1 + O=c1cc(-c2cccc3c2Sc2ccccc2S3)oc(N2CCOCC2)c1 [KU55933] (first compound 1 µM, partner dose 1 µM)",81.3,86,212,82.3,83.8,,36.2,91.4,39.5,84.4
"CCc1ccc(CCOc2ccc(CC3SC(=O)NC3=O)cc2)nc1 (centres undefined) [pioglitazone] + O=C(Nc1ccccc1)c1cc([N+](=O)[O-])ccc1Cl [GW9662] (first compound 2 µM, partner dose 2 µM)",158,129,77.5,124,126,,50.7,84.6,105,175
"O=C(O)c1ccc(-c2c[nH]c3ncc(-c4ccccc4)cc23)cc1C1CCCC1 + O=C(O)C(=O)Nc1sc2c(c1C(=O)O)CCNC2 [TCS401] (first compound 0.16 µM, partner dose 1.66667 µM)",100,148,69.5,205,134,,188,85.8,115,73.1
"NCC(=O)Nc1ccc(-n2nc(C(F)(F)F)cc2-c2ccc3c(ccc4ccccc43)c2)cc1 + CCc1ccc(CCOc2ccc(CC3SC(=O)NC3=O)cc2)nc1 [pioglitazone] (first compound 1 µM, partner dose 2 µM)",138,99.7,75.8,2040,45.6,,152,92,38.4,94.6
"COc1cc2c(Oc3ccc4[nH]c(C)cc4c3F)ncnc2cc1OCCCN1CCCC1 [cediranib] + Oc1cc(-c2nc(-c3ccccc3)[nH]c2-c2ccncc2)ccc1Cl [L779450] (first compound 0.4 µM, partner dose 0.2 µM)",196,83.7,168,186,247,,202,132,36.8,58.6
"COc1cc2ncnc(Nc3ccc(Oc4ccccc4)cc3)c2cc1OC + Oc1nc(-c2ccc(C(F)(F)F)cc2)nc2c1CSCC2 [XAV939] (first compound 2 µM, partner dose 2 µM)",73.6,64.5,68.2,28.7,85.1,,61.6,87.4,54.3,90.6
"COc1ccc2c(c1)CCC1C2CCC2(C)C(NCCCCCCN3C(=O)C=CC3=O)CCC12 (centres undefined) + COc1ccc(COc2ccc(Cc3cnc(N)nc3N)cc2OC)cc1 [GW2580] (first compound 0.4 µM, partner dose 1 µM)",67.5,232,42.7,293,293,,158,97.2,179,77.6
"Cc1cc([N+](=O)[O-])ccc1NS(=O)(=O)c1cc(Cl)ccc1Cl + Oc1nc(-c2ccc(C(F)(F)F)cc2)nc2c1CSCC2 [XAV939] (first compound 1 µM, partner dose 2 µM)",72.2,65.2,70.4,50.9,101,,148,148,1880,925
"COc1ccc2c(c1)CCC1C2CCC2(C)C(NCCCCCCN3C(=O)C=CC3=O)CCC12 (centres undefined) + Cc1cc([N+](=O)[O-])ccc1NS(=O)(=O)c1cc(Cl)ccc1Cl [FH535] (first compound 0.4 µM, partner dose 1 µM)",59.1,162,146,342,110,,80.4,227,1830,238
"Oc1cc(-c2nc(-c3ccccc3)[nH]c2-c2ccncc2)ccc1Cl + c1cc(-c2cnn3cc(-c4ccc(OCCN5CCCCC5)cc4)cnc23)ccn1 [Dorsomorphin] (first compound 0.2 µM, partner dose 0.4 µM)",163,220,176,181,65,,32.1,82.8,61.2,88
"CN(C)S(=O)(=O)c1ccc2c(c1)/C(=C/c1cc3c([nH]1)CCCC3)C(=O)N2 + COc1ccc2c(c1)CCC1C2CCC2(C)C(NCCCCCCN3C(=O)C=CC3=O)CCC12 [U73122] (first compound 0.4 µM, partner dose 0.4 µM)",91.9,66.5,59.6,46.1,72.5,,49,112,72.6,96.2

# Just cleaved PARP positive nuclei fraction [9] [%], for some of the entries so far:
Structure (SMILES)	cleaved PARP positive nuclei fraction [9] [%]
CN(C)S(=O)(=O)c1ccc2c(c1)/C(=C/c1cc3c([nH]1)CCCC3)C(=O)N2 + c1cc(-c2cnn3cc(-c4ccc(OCCN5CCCCC5)cc4)cnc23)ccn1 [Dorsomorphin] (first compound 0.4 µM, partner dose 0.4 µM)	81.5
COc1cc2c(Oc3ccc4[nH]c(C)cc4c3F)ncnc2cc1OCCCN1CCCC1 [cediranib] + Oc1cc(-c2nc(-c3ccccc3)[nH]c2-c2ccncc2)ccc1Cl [L779450] (first compound 0.4 µM, partner dose 0.2 µM)	36.8
